# Values joined by “and” are separate entries in the source; they are usually repeats but may differ in a detail not shown here. Identical values can stand only once. Counter-ions that a name gives are not always drawn. ± gives the standard deviation of the averaged measurements. The list shows a part of the results. Part of the spread comes from offsets between plates or batches.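 Assay uses culture-activated primary human stellate myofibroblasts; lipid droplet recovery indicates inactivation. Measured: proportion of Hoechst-counted cells over a plate-specific Bodipy cutoff, duplicate wells, DMSO and nortriptyline as per-plate negative and positive controls. A hit scores, control-normalized, above the plate's top-tenth-percentile nortriptyline wells or ranks among its three best wells. Final well concentrations not reported.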
# Test system: primary human hepatic stellate cells (donor 1)
# Assay: percent Bodipy-positive cells; higher = more lipid droplet accumulation
# Settings: 48 h
# [1] = library stock concentration: 1 mM
# [2] = library stock concentration: 10 mM
# [3] = library stock concentration: 3.33 mM
smiles,measurement,setting,value
CN1CCC[C@@H]1CCO[C@](C)(c1ccccc1)c1ccc(Cl)cc1 [Clemastine fumarate],percent Bodipy-positive cells,library stock concentration: 5.8 mM,57.1 ± 2.9%
CCc1cc(C(C)=O)c(O)cc1OCCCCCC(C)(C)c1nn[nH]n1,percent Bodipy-positive cells,[1],17.9 ± 5.5%
same,percent Bodipy-positive cells,[2],7.68 ± 2.2%
O=C(Cn1ccnc1[N+](=O)[O-])NCCO [Etanidazole],percent Bodipy-positive cells,,5.92 ± 1.3%
same,percent Bodipy-positive cells,library stock concentration: 9.3 mM,13.6 ± 7.2%
CCCCCCCCCCCCCCCC(=O)NC(C)C [Palmitoyl N-Isopropylamide],percent Bodipy-positive cells,[1],10.9 ± 4.8%
CCCCC[C@H](O)/C=C/[C@@H]1[C@H](C/C=C\CCCC(=O)O)[C@@H](O)C[C@H]1O [8-iso Prostaglandin F2.alpha.],percent Bodipy-positive cells,[1],12 ± 1.3%
C[C@H](NC(=O)c1sccc1OCc1ccc(Cl)cc1)c1ccccc1,percent Bodipy-positive cells,[2],10.4 ± 4.9%
CC(Cc1ccccc1)Nc1ncnc2c1ncn2C1OC(CO)C(O)C1O (stereo not drawn) [R(-)-N6-(2-Phenylisopropyl)adenosine],percent Bodipy-positive cells,[2],38.1 ± 3.9%
"N=C(N)SCCc1cccc(CCSC(=N)N)c1 [1,3-PBIT (dihydrobromide)]",percent Bodipy-positive cells,[1],6.26 ± 3.1%
O=c1cc(-c2ccc(O)cc2)oc2cc(O)cc(O)c12 [Apigenin],percent Bodipy-positive cells,,24.9 ± 5.2%
same,percent Bodipy-positive cells,[3],6.86 ± 1.4%
CO[C@H]1/C=C/O[C@@]2(C)Oc3c(C)c(O)c4c(c3C2=O)C2=NC3(CCN(CC(C)C)CC3)NC2=C(NC(=O)/C(C)=C\C=C\[C@H](C)[C@H](O)[C@@H](C)[C@@H](O)[C@@H](C)[C@H](OC(C)=O)[C@@H]1C)C4=O,percent Bodipy-positive cells,[2],11.5 ± 1.3%
CO[C@H]1/C=C/O[C@@]2(C)Oc3c(C)c(O)c4c(c3C2=O)C2=NC3(CCN(CC(C)C)CC3)NC2=C(NC(=O)/C(C)=C\C=C\[C@H](C)[C@H](O)[C@@H](C)[C@@H](O)[C@@H](C)[C@H](OC(C)=O)[C@@H]1C)C4=O [Rifabutin],percent Bodipy-positive cells,,6.35 ± 1.7%
same,percent Bodipy-positive cells,[2],29.9 ± 6.1%
CCOC(=O)C1=C(C)NC(C)=C(C(=O)OCC)C1c1c(F)c(F)c(F)c(F)c1F [Nemadipine-A],percent Bodipy-positive cells,[2],77.1 ± 22%
C1=CCOCc2cc(ccc2OCCN2CCCC2)Nc2nccc(n2)-c2cccc(c2)COC1 [Pacritinib],percent Bodipy-positive cells,[2],97.2 ± 2.3%
CC(C)n1nc(-c2cc3cc(O)ccc3[nH]2)c2c(N)ncnc21,percent Bodipy-positive cells,[3],1.5 ± 0.43%
same,percent Bodipy-positive cells,[2],18.1 ± 3.5%
NC(=O)N1c2ccccc2C=Cc2ccccc21,percent Bodipy-positive cells,[2],32.3 ± 13%
NC(=O)N1c2ccccc2C=Cc2ccccc21 [Carbamazepine],percent Bodipy-positive cells,,23.9 ± 6.3%
same,percent Bodipy-positive cells,[3],28.4 ± 4.5%
CC[n+]1c(/C=C/N(C)c2ccccc2)n(-c2ccccc2)c2ccc(-c3nc4ccccc4s3)cc21 [Akt Inhibitor IV],percent Bodipy-positive cells,[3],24.1 ± 4.8%
COc1ccccc1CNC1CCCNC1c1ccccc1 (stereo not drawn),percent Bodipy-positive cells,[2],59.8 ± 2.6%
N#Cc1ccccc1OCC(O)CNCCNC(=O)Nc1ccccc1 (stereo not drawn),percent Bodipy-positive cells,[2],16.8 ± 2.5%
NCCC[C@H](N)C(=O)O,percent Bodipy-positive cells,[2],20.7 ± 2%
Clc1ccc(C(Cn2ccnc2)OCc2c(Cl)cccc2Cl)c(Cl)c1 (stereo not drawn) [Isoconazole nitrate],percent Bodipy-positive cells,[3],5.46 ± 1.3%
same,percent Bodipy-positive cells,[2],27.9 ± 0.81%
Clc1ccc(C(Cn2ccnc2)OCc2c(Cl)cccc2Cl)c(Cl)c1 (stereo not drawn) [Isoconazole],percent Bodipy-positive cells,,28.9 ± 2.3%
CCCCCCCCCCCCCCCCCCCCCCCCC(=O)OC [Pentacosanoic Acid methyl ester],percent Bodipy-positive cells,[1],8.83 ± 2.4%
COc1c(O[C@@H]2O[C@H](CO)[C@@H](O)[C@H](O)[C@H]2O)cc2c(c1OC)-c1ccc(SC)c(=O)cc1[C@@H](NC(C)=O)CC2 [Thiocolchicoside],percent Bodipy-positive cells,,23.4 ± 1.8%
CCCCCCCCCCCCCC=CC(O)C(COP(=O)(O)O)NC(=O)CCCCCCC (stereo not drawn) [C-8 Ceramide-1-phosphate],percent Bodipy-positive cells,[1],10.1 ± 1.4%
NC(CO)(CO)CO [Trometamol],percent Bodipy-positive cells,[3],11.7 ± 4.1%
same,percent Bodipy-positive cells,[2],25.1 ± 6.4%
CN1CCC(=C2c3ccccc3CC(=O)c3sccc32)CC1.O=C(O)/C=C/C(=O)O [Ketotifen fumarate],percent Bodipy-positive cells,[2],88.3 ± 4%
CC(=O)c1ccc2c(c1)N(CCCN(C)C)c1ccccc1S2.O=C(O)/C=C\C(=O)O [Acepromazine maleate],percent Bodipy-positive cells,[2],91.1 ± 1.2%
O=C(CCCCCCNC(=O)c1cnc(N(c2ccccc2)c2ccccc2)nc1)NO [Rocilinostat],percent Bodipy-positive cells,library stock concentration: 80 uM,42.6 ± 1.2%
same,percent Bodipy-positive cells,library stock concentration: 400 uM,38.8 ± 4%
same,percent Bodipy-positive cells,library stock concentration: 2 mM,27.9 ± 3%
same,percent Bodipy-positive cells,[2],68.3 ± 9.8%
O=C(CCCCCCNC(=O)c1cnc(N(c2ccccc2)c2ccccc2)nc1)NO [Rocilinostat (ACY-1215)],percent Bodipy-positive cells,[3],33.9 ± 0.89%
same,percent Bodipy-positive cells,[2],80.6 ± 4%
O=c1ncccn1[C@@H]1O[C@H](CO)[C@@H](O)[C@H]1O [Zebularine],percent Bodipy-positive cells,[3],33.9 ± 5%
same,percent Bodipy-positive cells,[2],28.6% and 11.1%
CN(C)CCN(Cc1cccs1)c1ccccn1 [Methapyrilene hydrochloride],percent Bodipy-positive cells,,48.4 ± 2.6%
same,percent Bodipy-positive cells,library stock concentration: 6.7 mM,29.9 ± 2.6%
same,percent Bodipy-positive cells,[2],70.3% and 56%
O=c1c(O)c(-c2cc(O)c(O)c(O)c2)oc2cc(O)cc(O)c12 [Myricetin],percent Bodipy-positive cells,,25 ± 14%
same,percent Bodipy-positive cells,[2],23.2 ± 4.1%
Cc1cc(Cn2cnc3c2CC(C(=O)O)N(C(=O)C(c2ccccc2)c2ccccc2)C3)ccc1N(C)C (stereo not drawn),percent Bodipy-positive cells,[3],25.8 ± 3.5%
same,percent Bodipy-positive cells,[2],24.5% and 6.54%
O=C(O)c1cc2ccccc2[nH]1 [Indole-2-carboxylic acid],percent Bodipy-positive cells,[2],28.4 ± 17%
O=c1c(O)cccc2cc(O)c(O)c(O)c12 [Purpurogallin],percent Bodipy-positive cells,[2],31.3 ± 5.1%
Cc1ccc(S(=O)(=O)NC(=O)NN2CC3CCCC3C2)cc1 (stereo not drawn) [Gliclazide],percent Bodipy-positive cells,,27.1 ± 8.3%
same,percent Bodipy-positive cells,[3],7.16 ± 1.5%
same,percent Bodipy-positive cells,library stock concentration: 6.2 mM,8.54 ± 0.36%
COc1ccc(-c2cc(=O)c3c(O)cc(O)cc3o2)cc1 [Acacetin],percent Bodipy-positive cells,,19.3 ± 4.9%
same,percent Bodipy-positive cells,[2],28.8 ± 8.6%

# Reference: the supplement of paper PMC9135407
